Some peptides are written in HELM: one residue between dots, names in brackets for other building blocks, links after the first $. Square brackets hold non-standard residues; d marks the D form. ξ: configuration not given here. Dmt = Cc1cc(O)cc(C)c1C[C@H](N)C(=O)O; ξGly(octyl) = CCCCCCCCC(N)C(=O)O
Experiment: general procedure: Fmoc solid-phase peptide synthesis; Rink amide MBHA resin (100–200 mesh), loading 0.4–0.8 mmol/g; HBTU/DIPEA
Conditions: whole synthesis

| Substance | isolated yield |
| --- | --- |
| H-[ξGly(octyl)]YPWF-NH2 (SMILES CCCCCCCCC(N)C(=O)N[C@@H](Cc1ccc(O)cc1)C(=O)N1CCC[C@H]1C(=O)N[C@@H](Cc1c[nH]c2ccccc12)C(=O)N[C@@H](Cc1ccccc1)C(N)=O) | 43% |
| H-[ξGly(octyl)][Dmt]PWF-NH2 (SMILES CCCCCCCCC(N)C(=O)N[C@@H](Cc1c(C)cc(O)cc1C)C(=O)N1CCC[C@H]1C(=O)N[C@@H](Cc1c[nH]c2ccccc12)C(=O)N[C@@H](Cc1ccccc1)C(N)=O) | 40% |
| PEPTIDE1{Y.P.W.F.[am]}$$$$V2.0 | 84% |
| PEPTIDE1{[Dmt].P.W.F.[am]}$$$$V2.0 | 57% |
